Article PMC6524969, “A nanobody-based molecular toolkit provides new mechanistic insight into clathrin-coat initiation” (eLife, 2019)
Results are given in words; binding and its absence hold for the method and conditions named. Binding seen in cells or lysates may run through a third protein. Some entries that bind do so weakly or less than the wild type. For some of these results: Where a sequence is shown, tags or fusion partners need not be part of it.

By UniProt entry, the sequences of proteins in these tests, tags left out.
UniProt Q0JRZ9: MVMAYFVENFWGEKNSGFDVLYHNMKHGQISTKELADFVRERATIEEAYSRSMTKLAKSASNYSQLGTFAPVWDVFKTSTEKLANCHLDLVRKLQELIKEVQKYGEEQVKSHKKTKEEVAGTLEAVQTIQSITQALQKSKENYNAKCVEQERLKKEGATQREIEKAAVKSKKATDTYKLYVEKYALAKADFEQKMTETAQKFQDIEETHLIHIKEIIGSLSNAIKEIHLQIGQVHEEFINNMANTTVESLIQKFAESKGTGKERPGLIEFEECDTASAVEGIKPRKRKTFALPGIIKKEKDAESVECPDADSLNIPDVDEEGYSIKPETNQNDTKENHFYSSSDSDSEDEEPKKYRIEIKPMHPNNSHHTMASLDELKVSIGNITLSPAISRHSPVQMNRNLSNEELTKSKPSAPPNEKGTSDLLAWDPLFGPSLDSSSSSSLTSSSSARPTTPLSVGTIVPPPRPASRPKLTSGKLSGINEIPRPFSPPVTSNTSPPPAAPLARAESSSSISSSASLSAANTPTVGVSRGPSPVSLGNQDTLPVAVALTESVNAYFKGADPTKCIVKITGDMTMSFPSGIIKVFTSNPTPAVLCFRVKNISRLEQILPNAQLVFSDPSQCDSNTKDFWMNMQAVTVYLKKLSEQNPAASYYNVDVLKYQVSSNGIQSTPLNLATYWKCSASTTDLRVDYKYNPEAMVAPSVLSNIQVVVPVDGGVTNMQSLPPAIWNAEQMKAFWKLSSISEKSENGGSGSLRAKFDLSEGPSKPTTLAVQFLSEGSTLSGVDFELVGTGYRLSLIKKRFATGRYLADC

Columns and labels:
[1] = target: T1, EPS15R in K-562 cell lysate (human (endogenous in K-562)) (UniProt Q9UBC2); assay: co-IP; partners co-recovered with endogenous EPS15/R that was immobilised through its EH domains by His6-Nb E_142 on Ni-NTA-agarose; immunoblots
T1 sequence: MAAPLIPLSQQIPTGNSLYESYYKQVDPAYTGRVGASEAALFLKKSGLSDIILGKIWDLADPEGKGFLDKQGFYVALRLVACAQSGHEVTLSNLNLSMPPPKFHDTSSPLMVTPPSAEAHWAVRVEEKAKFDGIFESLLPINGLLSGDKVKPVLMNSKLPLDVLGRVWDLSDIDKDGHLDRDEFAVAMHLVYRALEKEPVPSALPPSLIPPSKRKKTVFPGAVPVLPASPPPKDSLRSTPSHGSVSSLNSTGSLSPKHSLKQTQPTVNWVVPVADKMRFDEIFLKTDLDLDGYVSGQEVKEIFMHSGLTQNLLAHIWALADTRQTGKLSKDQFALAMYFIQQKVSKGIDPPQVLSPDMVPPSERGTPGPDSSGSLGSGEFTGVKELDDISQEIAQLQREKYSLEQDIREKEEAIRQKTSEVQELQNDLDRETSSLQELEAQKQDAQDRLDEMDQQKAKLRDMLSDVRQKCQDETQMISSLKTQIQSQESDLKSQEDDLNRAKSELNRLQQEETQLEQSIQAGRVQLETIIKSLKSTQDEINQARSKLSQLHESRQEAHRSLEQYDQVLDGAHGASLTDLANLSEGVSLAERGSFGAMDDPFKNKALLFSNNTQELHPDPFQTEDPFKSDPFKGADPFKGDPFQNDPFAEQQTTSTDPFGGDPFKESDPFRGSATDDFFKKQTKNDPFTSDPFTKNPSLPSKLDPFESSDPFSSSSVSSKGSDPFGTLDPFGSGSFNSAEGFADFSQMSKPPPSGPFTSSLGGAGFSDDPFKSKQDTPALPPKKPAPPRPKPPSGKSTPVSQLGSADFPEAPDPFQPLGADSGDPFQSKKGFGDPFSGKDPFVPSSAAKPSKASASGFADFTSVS

[2] = target: T2, native EPS15 in K-562 cell lysate (human (endogenous in K-562)) (UniProt P42566); assay: as above
T2 sequence: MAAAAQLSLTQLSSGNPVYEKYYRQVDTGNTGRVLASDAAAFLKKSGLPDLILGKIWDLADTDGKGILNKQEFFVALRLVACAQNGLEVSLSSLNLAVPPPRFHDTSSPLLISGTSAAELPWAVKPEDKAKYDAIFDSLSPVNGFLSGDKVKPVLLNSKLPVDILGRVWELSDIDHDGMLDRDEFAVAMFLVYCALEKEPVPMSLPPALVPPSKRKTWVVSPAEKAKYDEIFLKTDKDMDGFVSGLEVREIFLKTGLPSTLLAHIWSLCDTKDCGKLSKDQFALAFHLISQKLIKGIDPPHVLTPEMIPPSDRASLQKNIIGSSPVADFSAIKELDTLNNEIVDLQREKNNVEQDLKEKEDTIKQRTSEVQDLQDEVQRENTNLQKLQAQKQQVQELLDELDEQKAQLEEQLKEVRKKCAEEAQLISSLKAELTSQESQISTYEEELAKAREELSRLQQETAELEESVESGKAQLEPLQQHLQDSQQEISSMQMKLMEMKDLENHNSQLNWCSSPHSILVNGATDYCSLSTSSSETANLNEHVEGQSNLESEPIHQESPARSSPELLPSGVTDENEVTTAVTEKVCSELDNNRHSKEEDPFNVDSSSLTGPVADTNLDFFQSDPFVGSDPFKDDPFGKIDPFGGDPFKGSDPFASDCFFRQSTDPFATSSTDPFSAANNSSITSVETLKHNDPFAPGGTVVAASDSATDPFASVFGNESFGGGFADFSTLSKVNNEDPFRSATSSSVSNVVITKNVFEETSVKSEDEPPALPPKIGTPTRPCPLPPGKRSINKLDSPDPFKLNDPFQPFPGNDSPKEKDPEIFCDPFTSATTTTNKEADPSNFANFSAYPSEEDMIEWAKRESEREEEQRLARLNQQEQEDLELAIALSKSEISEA

[3] = target: T3, GST-EPS15 (1-314) (human) (UniProt P42566); assay: pull-down; increasing amounts of GST-EPS15 (1-314) immobilised on glutathione-Sepharose; HeLa cell Triton X-100 lysate; 4°C, 60 min; immunoblots; only the target purified
T3 sequence: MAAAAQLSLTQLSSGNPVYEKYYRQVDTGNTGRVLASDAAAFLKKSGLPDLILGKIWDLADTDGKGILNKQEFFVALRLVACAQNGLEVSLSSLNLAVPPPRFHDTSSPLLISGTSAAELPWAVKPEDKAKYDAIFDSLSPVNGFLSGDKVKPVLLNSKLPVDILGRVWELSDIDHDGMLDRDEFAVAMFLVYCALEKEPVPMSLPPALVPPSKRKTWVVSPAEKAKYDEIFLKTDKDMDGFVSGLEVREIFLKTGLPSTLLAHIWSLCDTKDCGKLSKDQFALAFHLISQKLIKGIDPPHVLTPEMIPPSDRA

[4] = target: T3, GST-EPS15 (1-314) (human); assay: pull-down; 200 μg immobilised GST-EPS15 (1-314); HeLa lysate supplemented with equimolar (45 μg) or 5-fold molar excess (225 μg) Nb E_142; immunoblots of the partners; only the target purified

## FCHO2 (cytosolic, co-precipitated) (from UniProt Q0JRZ9 1-810)
[1]
  binding: binds
[2]
  binding: binds

B1: HIV-1 Rev-binding protein (HRB), HeLa lysate (protein, UniProt P52594 1-562)
chain: MAASAKRKQEEKHLKMLRDMTGLPHNRKCFDCDQRGPTYVNMTVGSFVCTSCSGSLRGLNPPHRVKSISMTTFTQQEIEFLQKHGNEVCKQIWLGLFDDRSSAIPDFRDPQKVKEFLQEKYEKKRWYVPPEQAKVVASVHASISGSSASSTSSTPEVKPLKSLLGDSAPTLHLNKGTPSQSPVVGRSQGQQQEKKQFDLLSDLGSDIFAAPAPQSTATANFANFAHFNSHAAQNSANADFANFDAFGQSSGSSNFGGFPTASHSPFQPQTTGGSAASVNANFAHFDNFPKSSSADFGTFNTSQSHQTASAVSKVSTNKAGLQTADKYAALANLDNIFSAGQGGDQGSGFGTTGKAPVGSVVSVPSQSSASSDKYAALAELDSVFSSAATSSNAYTSTSNASSNVFGTVPVVASAQTQPASSSVPAPFGATPSTNPFVAAAGPSVASSTNPFQTNARGATAATFGTASMSMPTGFGTPAPYSLPTSFSGSFQQPAFPAQAAFPQQTAFSQQPNGAGFAAFGQTKPVVTPFGQVAAAGVSSNPFMTGAPTGQFPTGSSSTNPFL
[3]
  binding: binds
[4]
  binding: binds

B2: clathrin assembly lymphoid myeloid leukemia protein (CALM), HeLa lysate (protein, UniProt Q13492 1-652)
chain: MSGQSLTDRITAAQHSVTGSAVSKTVCKATTHEIMGPKKKHLDYLIQCTNEMNVNIPQLADSLFERTTNSSWVVVFKSLITTHHLMVYGNERFIQYLASRNTLFNLSNFLDKSGLQGYDMSTFIRRYSRYLNEKAVSYRQVAFDFTKVKRGADGVMRTMNTEKLLKTVPIIQNQMDALLDFNVNSNELTNGVINAAFMLLFKDAIRLFAAYNEGIINLLEKYFDMKKNQCKEGLDIYKKFLTRMTRISEFLKVAEQVGIDRGDIPDLSQAPSSLLDALEQHLASLEGKKIKDSTAASRATTLSNAVSSLASTGLSLTKVDEREKQAALEEEQARLKALKEQRLKELAKKPHTSLTTAASPVSTSAGGIMTAPAIDIFSTPSSSNSTSKLPNDLLDLQQPTFHPSVHPMSTASQVASTWGDPFSATVDAVDDAIPSLNPFLTKSSGDVHLSISSDVSTFTTRTPTHEMFVGFTPSPVAQPHPSAGLNVDFESVFGNKSTNVIVDSGGFDELGGLLKPTVASQNQNLPVAKLPPSKLVSDDLDSSLANLVGNLGIGNGTTKNDVNWSQPGEKKLTGGSNWQPKVAPTTAWNAATMAPPVMAYPATTPTGMIGYGIPPQMGSVPVMTQPTLIYSQPVMRPPNPFGPVSGAQIQFM
[3]
  binding: binds weakly

B3: FCHO1 (cytosolic, co-precipitated) (protein, UniProt O14526 1-889)
chain: MSYFGEHFWGEKNHGFEVLYHSVKQGPISTKELADFIRERATIEETYSKAMAKLSKLASNGTPMGTFAPLWEVFRVSSDKLALCHLELTRKLQDLIKDVLRYGEEQLKTHKKCKEEVVSTLDAVQVLSGVSQLLPKSRENYLNRCMDQERLRRESTSQKEMDKAETKTKKAAESLRRSVEKYNSARADFEQKMLDSALRFQAMEETHLRHMKALLGSYAHSVEDTHVQIGQVHEEFKQNIENVSVEMLLRKFAESKGTGREKPGPLDFEAYSAAALQEAMKRLRGAKAFRLPGLSRREREPEPPAAVDFLEPDSGTCPEVDEEGFTVRPDVTQNSTAEPSRFSSSDSDFDDEEPRKFYVHIKPAPARAPACSPEAAAAQLRATAGSLILPPGPGGTMKRHSSRDAAGKPQRPRSAPRTSSCAERLQSEEQVSKNLFGPPLESAFDHEDFTGSSSLGFTSSPSPFSSSSPENVEDSGLDSPSHAAPGPSPDSWVPRPGTPQSPPSCRAPPPEARGIRAPPLPDSPQPLASSPGPWGLEALAGGDLMPAPADPTAREGLAAPPRRLRSRKVSCPLTRSNGDLSRSLSPSPLGSSAASTALERPSFLSQTGHGVSRGPSPVVLGSQDALPIATAFTEYVHAYFRGHSPSCLARVTGELTMTFPAGIVRVFSGTPPPPVLSFRLVHTTAIEHFQPNADLLFSDPSQSDPETKDFWLNMAALTEALQRQAEQNPTASYYNVVLLRYQFSRPGPQSVPLQLSAHWQCGATLTQVSVEYGYRPGATAVPTPLTNVQILLPVGEPVTNVRLQPAATWNLEEKRLTWRLPDVSEAGGSGRLSASWEPLSGPSTPSPVAAQFTSEGTTLSGVDLELVGSGYRMSLVKRRFATGMYLVSC
[1]
  binding: binds
[2]
  binding: binds
